Source: paper PMC10572428, “Possibility of Using Different Calcium Compounds for the Manufacture of Fresh Acid Rennet Cheese from Goat’s Milk” (Foods, 2023)

Key:
[1] = Concentrations of macro- and micro-elements in cheese (ICP-OES); parameters: species or system goat; conditions: 20 mg of Ca
[2] = cited from earlier work

SMILES: CC(O)C(=O)[O-].CC(O)C(=O)[O-].[Ca+2] (stereo not drawn) [Lactate, calcium lactate]
- increase in phosphorus content of cheese [1]: 4.5 mg per 100 g

SMILES: NCC(=O)[O-].NCC(=O)[O-].[Ca+2] [bisglycinate]
- increase in calcium content of cheese compared to the control ([2]; 40 mg Ca 100 g^−1 of milk): 99.24 mg

SMILES: O=C([O-])CC(O)(CC(=O)[O-])C(=O)[O-].O=C([O-])CC(O)(CC(=O)[O-])C(=O)[O-].[Ca+2].[Ca+2].[Ca+2] [calcium citrate]
- increase in calcium content of acid rennet cheese compared to the control sample ([2]; 20 mg Ca 100 g^−1 of milk): 26.62 mg
